Among the data in publication PMC7819943, “Rice protein-binding microarrays: a tool to detect cis-acting elements near promoter regions in rice” are binding signal values, retold here.

The chains behind the UniProt entries cited, without tags or fusion partners.
UniProt Q0JBA9, entry or part of it: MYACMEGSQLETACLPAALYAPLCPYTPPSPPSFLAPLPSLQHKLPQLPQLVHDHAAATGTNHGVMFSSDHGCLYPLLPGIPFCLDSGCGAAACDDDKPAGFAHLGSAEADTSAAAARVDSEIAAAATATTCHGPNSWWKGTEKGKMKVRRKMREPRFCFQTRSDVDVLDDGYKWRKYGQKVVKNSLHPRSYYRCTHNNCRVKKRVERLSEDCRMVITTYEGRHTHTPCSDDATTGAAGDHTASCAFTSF

The list shows a part of the results.

This experiment has as its target OsWRKY34 (Oryza sativa, UniProt Q0JBA9 1-250). Briefly: protein-binding microarray (RPBM); PBS, 2% BSA, 51.3 ng/ul salmon testes DNA, 50 uM zinc acetate, 200 nM TF, 25 C, 1 h; high values mean tight binding. The conditions noted are these: protein: recombinant; tags: N-terminal polyhistidine and DsRed monomer fusion (pET32a); label: CyDye5-dUTP incorporated in the synthesized complementary strand; 3' TTTTT single-stranded linker to array surface; dsDNA, one strand shown. The procedure, abridged: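 An Axon 4000B scanner gave the binding signal as per-feature fluorescence intensity in arbitrary units. This followed washing of a custom Agilent array that had been incubated for 1 h at 25 °C with 200 nM protein in PBS, 2% BSA, salmon testes DNA and 50 µM zinc acetate. The proteins were transcription factors fused at the N-terminus to polyhistidine and DsRed, expressed in E. coli BL21-CodonPlus and purified on Ni–NTA.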
As to “GGTGCTGGTCTTCGTTTTGTATCAATAATCATTCGTAGCGCGGAGTCACCTAGTGCAG”, the binding signal is 8640 fluorescence intensity (a.u.). Turning to “AACCTTCGCTATTCCATTGCCATCGCCGCCACCTCCATTGCGGAGTCACCTAGTGCAG”, the binding signal is 8430 fluorescence intensity (a.u.). As for “ACCTTGTACTTTTGTCTACATATGTGTCATTCTATCTTGGCGGAGTCACCTAGTGCAG”, the binding signal is 8910 fluorescence intensity (a.u.).

Regarding “TATATCCTCCTCATCTCTTCGCTTATCAAGATTCCTGTTACGGAGTCACCTAGTGCAG”, the binding signal was 8600 fluorescence intensity (a.u.). With “GAGATTGTGTGTGTATAGAATGAGTTGTGAATTTGGTAATCGGAGTCACCTAGTGCAG” the figure was 11100 fluorescence intensity (a.u.); with “CTCGCTCTCTCCGATTCTCCAGCACAAACCGACGGCGAGCCGGAGTCACCTAGTGCAG”, 8390 fluorescence intensity (a.u.).

In the case of “AGCACATATTTGACCGTTCGTCTTATTCAAAAACTTTTATCGGAGTCACCTAGTGCAG”, the binding signal is 8540 fluorescence intensity (a.u.). “CATATTTGTGTTCATTTATTAAGTCTATTCGTTATTTGTGCGGAGTCACCTAGTGCAG”: the binding signal is 10100 fluorescence intensity (a.u.). Take “CTATAAATCCTGCTTTCCTTCTCTCTCTTATCTTCTCTCTCGGAGTCACCTAGTGCAG”: the binding signal was 10000 fluorescence intensity (a.u.). Take “CATATCTATGCCTTTCATGTTTCAAATGCTTCCTGTTTGTCGGAGTCACCTAGTGCAG”: the binding signal is 9420 fluorescence intensity (a.u.). As for “GAAGGCGTACTTTGACTTTACGTGACCCGTCCCCGGCCGCCGGAGTCACCTAGTGCAG”, the binding signal was 9650 fluorescence intensity (a.u.).

As for “TGAGAGATTCCTTCCTTGTTAACGGTGTTGCCTTCAAGAACGGAGTCACCTAGTGCAG”, the binding signal was 9330 fluorescence intensity (a.u.). In the case of “AATTTACATCTCGGCCACCTAACGGTAACATCTTAATCCACGGAGTCACCTAGTGCAG”, the binding signal is 9880 fluorescence intensity (a.u.). In the case of “TATAATTGGTTTGAGGTTTTTTCATCTAAGTTTATTTTTCCGGAGTCACCTAGTGCAG”, the binding signal was 9200 fluorescence intensity (a.u.). In the case of “TTTCGACCGTACCGTTTTTGGCTATTTTTAAATTTTATTTCGGAGTCACCTAGTGCAG” it was 11700 fluorescence intensity (a.u.); in that of “ATGGCGCACATGCTTGGATGGGCCGGCCCGTCGCTCCACGCGGAGTCACCTAGTGCAG”, 8192 fluorescence intensity (a.u.). As to “GGTAGTACTCTCGCATCTTTTGAAGCCTAGCTTCCTTGTCCGGAGTCACCTAGTGCAG”, the binding signal is 8070 fluorescence intensity (a.u.). With “TTGCAGTATCCCGGTTGCCCACCTTTCATGGTCCATCACCCGGAGTCACCTAGTGCAG” the figure was 8490 fluorescence intensity (a.u.).

Regarding “CCGGGCCGGTCACTGACATTGTGAGCCCTGTCCATTTTAGCGGAGTCACCTAGTGCAG”, the binding signal is 8210 fluorescence intensity (a.u.). Consider “GTTGGATTATTGTGAGTCTTGTCTTTCTTATCTATAGTTGCGGAGTCACCTAGTGCAG”, for which the binding signal is 9420 fluorescence intensity (a.u.).

Turning to “TAGTAAACAACAGAAGTTGTTCTGTATGGTCTACTTGTTTCGGAGTCACCTAGTGCAG”, the binding signal is 8880 fluorescence intensity (a.u.). For “ATCCAACGAAATGGTGCTACTTTCCACCCTTTTTCTTTGGCGGAGTCACCTAGTGCAG”, the binding signal is 8030 fluorescence intensity (a.u.). Consider “CACCAACTCACTGCTCCTCTCAGTGTGCCACTACCGGACACGGAGTCACCTAGTGCAG”, for which the binding signal was 9130 fluorescence intensity (a.u.). As for “CGTCGTGTGTCCAAACTTCCTAGGCAGTTTTATCCCACTTCGGAGTCACCTAGTGCAG”, the binding signal is 14000 fluorescence intensity (a.u.). In the case of “ACCCATGCTGTTATCCGGTTCACAAGCAAGCCCACATCTGCGGAGTCACCTAGTGCAG”, the binding signal is 8320 fluorescence intensity (a.u.). In the case of “CCCTTTCTCAGTCCACCCCATGTGTGGTATTTCCCTGTCTCGGAGTCACCTAGTGCAG” it was 8440 fluorescence intensity (a.u.); in that of “GCATGCTCTGGTCCCCGCCGTTCCTTCCGCCGCATGCCCCCGGAGTCACCTAGTGCAG”, 8030 fluorescence intensity (a.u.). Consider “TTTAGCCTTTTATCTTTTTTGTCTTAATTATAGGGTTAGTCGGAGTCACCTAGTGCAG”, for which the binding signal is 8050 fluorescence intensity (a.u.). With “GCTCGCAATACCATATCATGATTCATCGTATCTTTTTTTTCGGAGTCACCTAGTGCAG” the figure was 11500 fluorescence intensity (a.u.); with “TGCACCTCTCAGTTCGTTTCCTGCTTAGTTCTTCAGTTCTCGGAGTCACCTAGTGCAG”, 9370 fluorescence intensity (a.u.); with “ACAAGCCGTTGGTAGTTCCCTTGATCGCTTCCAATAGTCGCGGAGTCACCTAGTGCAG”, 8090 fluorescence intensity (a.u.). With “GGTGGCGGGGCATCTCGCCGCCGACGGCTCGAGGAGGAAACGGAGTCACCTAGTGCAG”, the binding signal was 18400 fluorescence intensity (a.u.). With “GCACATATTCCATCAGGCATTATCCGCATTTTTATTGTGCCGGAGTCACCTAGTGCAG” the figure was 9310 fluorescence intensity (a.u.). In the case of “TCTCCTTATTTTCTGTTGTATTCCGTCTAAGGCATAGTTCCGGAGTCACCTAGTGCAG” it was 10400 fluorescence intensity (a.u.); in that of “CTCGTTTATCCCCTATATTTTTACATGTCAGCTATTCTTACGGAGTCACCTAGTGCAG”, 8380 fluorescence intensity (a.u.). For the sequence “GTGGAGGGAGTACATGCCTTCGATGATATTTTCTGCTGCTCGGAGTCACCTAGTGCAG”, the binding signal is 8600 fluorescence intensity (a.u.). With “TACCATACAAATACTGACCTCTGCTTCGTGTACTCTGCCACGGAGTCACCTAGTGCAG” the figure was 9800 fluorescence intensity (a.u.). As for “ATTGAGTCTCCTCTAATCCTCCTCGATGTACCTCATTCCTCGGAGTCACCTAGTGCAG”, the binding signal was 12400 fluorescence intensity (a.u.).

For the sequence “TTTTGTGTTTTGCTTCCACACGTTAGTGGTTCGTCCTGTTCGGAGTCACCTAGTGCAG”, the binding signal was 10100 fluorescence intensity (a.u.).

Take “ACAGGCGATATGTCACCCTATTTCTGTTGCTGTTCAACGACGGAGTCACCTAGTGCAG”: the binding signal was 8410 fluorescence intensity (a.u.).

As for “ACTATATTGCCTGCACCAGGAATCCTCATTCTTTCCTATTCGGAGTCACCTAGTGCAG”, the binding signal was 11800 fluorescence intensity (a.u.). In the case of “TTAGTTACTTTTATTTCTCTCCTTTTTCTTCTAATCTCCTCGGAGTCACCTAGTGCAG” it was 8200 fluorescence intensity (a.u.).
